Experimental data reported in PubChem BioAssay AID504444 (National Center for Advancing Translational Sciences (NCATS), 2011).
About 7,500 (2.1%) of roughly 360,000 compounds were called active. Calls follow the shape of the dose curve; as a rule, active = well fitted inhibition curve with a large enough effect; inconclusive = small, poorly fitted or top-dose-only effect, or effect the other way; inactive = flat fitted curve, though single readings scatter. The inconclusive results got no clear call from the source. Where the call is inconclusive, the potency comes from a doubtful curve fit.
Potency is read from the fitted curve at half-maximal effect.

Assay: Nrf2 qHTS screen for inhibitors; also: nearly all actives have a fitted effect of over 60% in size
Settings: A549 ARE-Fluc reporter, luciferase luminescence, 18-24 h; series mostly up to 46 µM
In short: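 Concentration-response testing used A549 ARE_Fluc cells at 5000 cells/well. Following an 18-24 h compound incubation, viability was read by fluorescence (Ex 405/Em 525) and luciferase output by luminescence.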
With `Cc1c(CC(=O)O)c(=O)oc2c(C)c3occ(-c4ccc(Br)cc4)c3cc12` the Potency was inconclusive: 1.84 µM [falling, full curve].
In the case of `O=C(O)COc1ccccc1/C=N/NC(=O)CSc1nnc(SCc2cccc3ccccc23)s1`, the Potency was inconclusive: 16.4 µM [activator, partial curve, poor fit].
